In publication PMC12595434, “Development of retinoid nuclear receptor pathway antagonists through targeting aldehyde dehydrogenase 1A3” (iScience, 2025):

Assays:
Experiment in all cases: Metabolomic profiling of treated cell lines
[1] = test system: LN229 cells; assay type: cell-based, human; conditions: LN229:MBE, replicates
[2] = test system: AsPC-1 cells; assay type: cell-based, human; conditions: AsPC-1:MBE, replicates
[3] = test system: HEK293; assay type: cell-based; conditions: HEK293_Inhibitor

CCc1cnccc1C(=O)Nc1cc2c(cc1F)NC(=O)CC2 [MBE1, 3-ethyl-N-(7-fluoro-2-oxo-3,4-dihydro-1H-quinolin-6-yl)pyridine-4-carboxamide]
5-Hydroxylysine raw counts [1]: 26977.6 and 37147.9 and 37455.2
ADP raw counts [1]: 281963 and 259383 and 273694
ATP raw counts [1]: 1249224 and 1105136 and 1240834
Aconitate raw counts [1]: 744773 and 754391 and 726720
Arginine raw counts [1]: 1.51E+07 and 1.74E+07 and 1.57E+07
CMP raw counts [1]: 20331.7 and 23148.7 and 22728
CTP raw counts [1]: 179874 and 176413 and 181108
Citrate raw counts [1]: 1049009 and 934518 and 944496
Creatine Phosphate raw counts [1]: 955457 and 940864 and 890509
Cystathionine raw counts [1]: 56241.4 and 41026.6 and 55257.1
D-Glyceraldehyde-3-phosphate raw counts [1]: 59266.2 and 52020.6 and 54626.7
Fructose-1 6-bisphosphate raw counts [1]: 166696 and 126689 and 178645
Fructose-6-phosphate raw counts [1]: 95826.4 and 110337 and 115613
GMP raw counts [1]: 11308.5 and 7404.49 and 10217
GTP raw counts [1]: 153122 and 125534 and 162145
Glucose-6-phosphate raw counts [1]: 88085.3 and 91037.8 and 85962.2
Glutathione disulfide raw counts [1]: 20165.3 and 26983.3 and 23186.6
Isocitrate raw counts [1]: 87479.9 and 73064.6 and 81642.9
L-arginino-succinate raw counts [1]: 16067.4 and 9060.83 and 9882.12
Lysine raw counts [1]: 3.49E+07 and 4.19E+07 and 3.69E+07
NADP+ raw counts [1]: 7400.66 and 9474.38 and 11194
NADPH raw counts [1]: 16725.4 and 24193.5 and 23508.9
Ornithine raw counts [1]: 2170011 and 2596866 and 2275009
Phosphocholine raw counts [1]: 8510163 and 8304614 and 8411928
Succinyl-CoA raw counts [1]: 2412.65 and 0 (2×)
Thiamine pyrophosphate raw counts [1]: 0 (2×) and 1881.37
UDP-D-Glucose raw counts [1]: 715424 and 734399 and 760376
UMP raw counts [1]: 21257.6 and 12508 and 19270.4
UTP raw counts [1]: 525821 and 442636 and 490428
5-Hydroxylysine raw counts [2]: 16930.4 and 18511.4 and 20393.4
Arginine raw counts [2]: 4.21E+07 and 4.24E+07 and 4.26E+07
CMP raw counts [2]: 68651.9 and 69412.3 and 72678.9
Fructose-6-phosphate raw counts [2]: 162499 and 178347 and 164197
GMP raw counts [2]: 13054 and 22426.8 and 14251.8
Glutathione disulfide raw counts [2]: 24674.6 and 25067.3 and 37282.5
L-arginino-succinate raw counts [2]: 185568 and 205724 and 197815
NADP+ raw counts [2]: 20524.8 and 19591.4 and 19571.9
NADPH raw counts [2]: 128795 and 164014 and 154507
Thiamine pyrophosphate raw counts [2]: 6899.13 and 12226.7 and 17371.9
UMP raw counts [2]: 12433.8 and 11626.9 and 12777.6
2-Hydroxyglutarate raw counts [3]: 3334201 and 3370013 and 3258131
Asparagine raw counts [3]: 1.10E+07 and 1.11E+07 and 1.09E+07
Aspartate raw counts [3]: 2.26E+07 and 2.95E+07 and 2.83E+07
Cystine raw counts [3]: 2150908 and 1792681 and 1932809
Dihydroxyacetone phosphate raw counts [3]: 133547 and 130893 and 139305
Fumarate raw counts [3]: 2109985 and 1961945 and 2110337
Glucose raw counts [3]: 2.12E+08 and 1.99E+08 and 2.05E+08
Glutamate raw counts [3]: 3.60E+08 and 4.00E+08 and 3.85E+08
Glutamine raw counts [3]: 2.92E+08 and 3.23E+08 and 3.21E+08
Glutathione raw counts [3]: 4.90E+07 and 5.65E+07 and 5.60E+07
Glycerophosphocholine raw counts [3]: 392609 and 376677 and 389281
Hisidine raw counts [3]: 8003698 and 7428740 and 7873790
Inositol raw counts [3]: 4.90E+07 and 4.97E+07 and 5.16E+07
Malate raw counts [3]: 4.20E+07 and 4.30E+07 and 4.09E+07
Methionine sulfoxide raw counts [3]: 1306694 and 1213389 and 1266229
N-acetyl-glutamate raw counts [3]: 7709980 and 7740664 and 7938092
NAD+ raw counts [3]: 2007890 and 2095398 and 2270274
NADH raw counts [3]: 66228.9 and 82736.6 and 74379.8
Proline raw counts [3]: 1.73E+07 and 1.54E+07 and 1.67E+07
S-adenosyl-L-homocysteine raw counts [3]: 26060 and 26148.7 and 27432.7
Serine raw counts [3]: 3.76E+07 and 4.18E+07 and 4.24E+07
Succinate raw counts [3]: 4.20E+07 and 3.49E+07 and 3.71E+07
Thiamine raw counts [3]: 5.00E+07 and 5.02E+07 and 4.45E+07
Threonine raw counts [3]: 1.30E+08 and 1.21E+08 and 1.29E+08
UDP-N-acetyl-glucosamine raw counts [3]: 6922460 and 7146864 and 7966238

Values joined by “and” are separate entries in the source; they are usually repeats but may differ in a detail not shown here. Equal values may be shown once.
